The values below come from article PMC5996148.

This is one part of the list.

Holding throughout (test): protein microarray (ProtoArray v5.0), streptavidin-Alexa Fluor 647
Conditions in all cases: 3'-biotin; 20 mM Tris (pH 7.5), 5 mM MgCl2, 100 mM KCl, 0.1% Tween-20, A/T-rich and random oligonucleotide blockers; temperature not stated; high values mean tight binding

Test [1] deals with LOC286208 (human).
The test system of test [2] is LOC339483 (human).
Test [3] concerns LOC339804 (human).
Test [4] concerns LOC387942 (human).
In test [5] the test system is LOC389687 (human).
Test [6] has as its system LOC389822 (human).
Test [7] has as its system LOC399951 (human).
Test [8] deals with LOC400120 (human).
For test [9], the system named is LOC400600 (human).
Test [10] concerns LOC400877 (human).
Test [11] concerns LOC401037 (human).
The subject of test [12] is LOC401169 (human).
Test [13] has as its system LOC401270 (human).
The test system of test [14] is LOC401464 (human).
The test system of test [15] is LOC401607 (human).
The subject of test [16] is LOC442582 (human).
The subject of test [17] is LOC51233 (human).
Test [18] deals with LOC51252 (human).
Test [19] relates to LOC541471 (human).
Test [20] relates to LOC541473 (human).

For the sequence “GGGAGGCTGAGGCAGG [G4-1 biotinylated (PQS2)]”, the binding signal is -0.309 z-score in [1]; -0.338 z-score in test [2]; -0.236 z-score in test [3]; -0.28 z-score in [4]; -0.283 z-score in test [5]; -0.31 z-score in test [6]. Moreover, the binding signal is -0.27 z-score in test [7]; -0.289 z-score in test [8]; -0.32 z-score in test [9]; -0.299 z-score in test [10]; -0.294 z-score in [11]; -0.328 z-score in test [12]. Further, the binding signal in [13] was -0.307 z-score; in test [14], -0.259 z-score; in [15], -0.331 z-score; in [16], -0.331 z-score; in test [17], -0.327 z-score; in test [18] it was -0.334 z-score. Besides, the binding signal in [19] was -0.349 z-score; in test [20] it was -0.308 z-score.
